Where two headings read alike, the source gives them in different places. These are yes or no findings as the source states them, for the method shown. Binding seen in cells or lysates may run through a third protein. Some entries that bind do so weakly or less than the wild type. For some assays here: Sequences can lack the tags named with a protein.

Chains of the proteins cited; added tags and fusions are not shown. Residues count along the entry.
UniProt Q01705, residues 1744-2531: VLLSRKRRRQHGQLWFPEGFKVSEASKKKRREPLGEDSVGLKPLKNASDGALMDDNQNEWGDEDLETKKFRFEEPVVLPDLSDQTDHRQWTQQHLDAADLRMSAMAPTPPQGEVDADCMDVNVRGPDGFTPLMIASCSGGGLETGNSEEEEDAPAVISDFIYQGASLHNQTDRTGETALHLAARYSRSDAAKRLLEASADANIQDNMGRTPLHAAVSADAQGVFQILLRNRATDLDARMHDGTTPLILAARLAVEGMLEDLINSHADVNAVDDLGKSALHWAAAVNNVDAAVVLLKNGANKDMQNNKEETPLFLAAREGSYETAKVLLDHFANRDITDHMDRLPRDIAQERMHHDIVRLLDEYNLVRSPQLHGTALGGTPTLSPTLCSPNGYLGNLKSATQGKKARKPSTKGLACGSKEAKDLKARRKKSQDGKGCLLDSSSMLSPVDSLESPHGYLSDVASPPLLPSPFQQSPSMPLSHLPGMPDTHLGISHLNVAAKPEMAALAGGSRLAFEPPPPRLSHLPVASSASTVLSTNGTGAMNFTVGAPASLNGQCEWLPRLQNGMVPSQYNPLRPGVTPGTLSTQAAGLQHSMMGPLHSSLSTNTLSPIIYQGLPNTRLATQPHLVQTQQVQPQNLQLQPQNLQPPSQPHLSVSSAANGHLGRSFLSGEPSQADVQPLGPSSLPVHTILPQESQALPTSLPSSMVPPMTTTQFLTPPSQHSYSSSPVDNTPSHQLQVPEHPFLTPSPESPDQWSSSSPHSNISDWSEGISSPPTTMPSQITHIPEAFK
UniProt P31266: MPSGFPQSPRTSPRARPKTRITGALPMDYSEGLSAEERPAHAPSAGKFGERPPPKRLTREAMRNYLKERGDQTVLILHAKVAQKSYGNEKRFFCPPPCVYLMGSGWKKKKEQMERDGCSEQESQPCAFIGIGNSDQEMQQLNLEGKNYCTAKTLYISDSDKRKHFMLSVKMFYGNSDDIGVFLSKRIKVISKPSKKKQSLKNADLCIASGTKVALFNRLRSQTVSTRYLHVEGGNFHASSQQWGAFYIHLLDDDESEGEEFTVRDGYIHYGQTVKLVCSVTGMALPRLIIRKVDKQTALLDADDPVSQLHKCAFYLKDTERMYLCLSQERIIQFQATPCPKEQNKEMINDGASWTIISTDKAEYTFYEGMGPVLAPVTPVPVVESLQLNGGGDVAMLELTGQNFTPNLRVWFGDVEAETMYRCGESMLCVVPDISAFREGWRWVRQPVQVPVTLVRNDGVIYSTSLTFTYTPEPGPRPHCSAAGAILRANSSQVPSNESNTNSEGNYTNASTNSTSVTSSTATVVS
UniProt Q62296: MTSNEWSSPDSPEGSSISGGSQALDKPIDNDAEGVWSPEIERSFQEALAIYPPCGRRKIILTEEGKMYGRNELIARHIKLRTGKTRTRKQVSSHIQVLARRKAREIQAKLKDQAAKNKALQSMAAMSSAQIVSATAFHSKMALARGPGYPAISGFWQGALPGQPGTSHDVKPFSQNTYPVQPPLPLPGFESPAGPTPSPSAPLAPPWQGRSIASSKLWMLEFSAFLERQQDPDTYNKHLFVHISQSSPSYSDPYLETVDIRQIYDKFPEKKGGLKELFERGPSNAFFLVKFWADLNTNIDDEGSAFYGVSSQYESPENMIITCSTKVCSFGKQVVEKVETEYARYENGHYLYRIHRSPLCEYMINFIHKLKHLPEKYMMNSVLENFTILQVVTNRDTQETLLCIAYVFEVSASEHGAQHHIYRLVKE

Holding throughout (test): co-IP; tagged proteins co-expressed in 293T cells; lysis buffer 10 mM HEPES pH 7.6, 250 mM NaCl, 0.1% NP40, 5 mM EDTA; IP with tag antibody and protein-G PLUS-agarose, 30 min at 4 °C; blot with tag antibodies; with or without co-expressed HA-Yap or Myc-NICD1
For assay [1], the target named is T1, SBNO1-V5 (human Strawberry Notch 1, V5-tagged) (human) (UniProt A3KN83).
T1 sequence: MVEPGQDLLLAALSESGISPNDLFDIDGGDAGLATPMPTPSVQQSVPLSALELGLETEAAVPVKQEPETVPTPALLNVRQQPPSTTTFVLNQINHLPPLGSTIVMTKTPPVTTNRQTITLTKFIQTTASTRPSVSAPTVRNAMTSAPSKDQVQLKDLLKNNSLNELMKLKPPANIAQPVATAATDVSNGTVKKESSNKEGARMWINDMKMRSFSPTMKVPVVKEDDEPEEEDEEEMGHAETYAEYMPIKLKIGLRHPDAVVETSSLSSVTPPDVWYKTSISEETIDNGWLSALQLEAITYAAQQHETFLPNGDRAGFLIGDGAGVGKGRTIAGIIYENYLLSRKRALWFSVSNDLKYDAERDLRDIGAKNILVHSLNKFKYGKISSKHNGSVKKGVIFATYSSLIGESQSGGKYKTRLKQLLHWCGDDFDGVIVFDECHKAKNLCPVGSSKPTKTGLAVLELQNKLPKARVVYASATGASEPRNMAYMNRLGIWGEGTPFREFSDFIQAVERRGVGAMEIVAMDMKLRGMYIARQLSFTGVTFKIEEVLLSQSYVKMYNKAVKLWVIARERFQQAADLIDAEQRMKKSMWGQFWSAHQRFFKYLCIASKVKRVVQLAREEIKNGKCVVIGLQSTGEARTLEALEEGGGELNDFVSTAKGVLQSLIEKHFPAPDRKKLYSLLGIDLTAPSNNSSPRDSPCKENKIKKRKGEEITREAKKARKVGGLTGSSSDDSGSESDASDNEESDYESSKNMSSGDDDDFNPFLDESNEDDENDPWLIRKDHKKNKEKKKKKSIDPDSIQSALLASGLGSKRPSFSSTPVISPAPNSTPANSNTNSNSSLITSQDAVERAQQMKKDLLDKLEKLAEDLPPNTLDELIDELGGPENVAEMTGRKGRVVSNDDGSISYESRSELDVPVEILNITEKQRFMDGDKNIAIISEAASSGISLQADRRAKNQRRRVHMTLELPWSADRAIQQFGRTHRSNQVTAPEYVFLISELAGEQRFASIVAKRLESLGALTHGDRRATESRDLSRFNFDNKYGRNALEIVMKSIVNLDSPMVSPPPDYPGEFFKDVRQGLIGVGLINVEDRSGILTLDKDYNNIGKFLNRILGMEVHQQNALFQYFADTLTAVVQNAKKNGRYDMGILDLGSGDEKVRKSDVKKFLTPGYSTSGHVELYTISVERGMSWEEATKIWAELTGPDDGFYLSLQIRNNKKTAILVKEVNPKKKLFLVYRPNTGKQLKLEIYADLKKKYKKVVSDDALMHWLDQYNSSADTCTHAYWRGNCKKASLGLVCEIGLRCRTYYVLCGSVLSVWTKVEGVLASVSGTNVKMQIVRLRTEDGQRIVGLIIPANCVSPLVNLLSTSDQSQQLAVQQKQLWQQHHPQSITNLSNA

Assay [2] has as its target Myc-mNICD1 (V1744-K2531) (mouse) (UniProt Q01705).
In assay [3] the target is FLAG-mRbpj (mouse) (UniProt P31266).
Another assay deals with FLAG-mTead4 (mouse) (UniProt Q62296).
The target in assay [4] is FLAG-mRbpj (mouse) (UniProt P31266). This is another data set of the same source.

As to FLAG-mRbpj (from UniProt P31266 1-526), the binding result in assay [1] and in assay [2] was “binds” throughout.

Consider “Myc-mNICD1 (V1744-K2531) (from UniProt Q01705 1744-2531) (domain or fragment)”, for which the binding entry with FLAG-mRbpj (mouse) [3] was “binds”.

B1: SBNO1-Myc (human Strawberry Notch 1, Myc-tagged) (protein, UniProt A3KN83 1-1393)
chain: MVEPGQDLLLAALSESGISPNDLFDIDGGDAGLATPMPTPSVQQSVPLSALELGLETEAAVPVKQEPETVPTPALLNVRQQPPSTTTFVLNQINHLPPLGSTIVMTKTPPVTTNRQTITLTKFIQTTASTRPSVSAPTVRNAMTSAPSKDQVQLKDLLKNNSLNELMKLKPPANIAQPVATAATDVSNGTVKKESSNKEGARMWINDMKMRSFSPTMKVPVVKEDDEPEEEDEEEMGHAETYAEYMPIKLKIGLRHPDAVVETSSLSSVTPPDVWYKTSISEETIDNGWLSALQLEAITYAAQQHETFLPNGDRAGFLIGDGAGVGKGRTIAGIIYENYLLSRKRALWFSVSNDLKYDAERDLRDIGAKNILVHSLNKFKYGKISSKHNGSVKKGVIFATYSSLIGESQSGGKYKTRLKQLLHWCGDDFDGVIVFDECHKAKNLCPVGSSKPTKTGLAVLELQNKLPKARVVYASATGASEPRNMAYMNRLGIWGEGTPFREFSDFIQAVERRGVGAMEIVAMDMKLRGMYIARQLSFTGVTFKIEEVLLSQSYVKMYNKAVKLWVIARERFQQAADLIDAEQRMKKSMWGQFWSAHQRFFKYLCIASKVKRVVQLAREEIKNGKCVVIGLQSTGEARTLEALEEGGGELNDFVSTAKGVLQSLIEKHFPAPDRKKLYSLLGIDLTAPSNNSSPRDSPCKENKIKKRKGEEITREAKKARKVGGLTGSSSDDSGSESDASDNEESDYESSKNMSSGDDDDFNPFLDESNEDDENDPWLIRKDHKKNKEKKKKKSIDPDSIQSALLASGLGSKRPSFSSTPVISPAPNSTPANSNTNSNSSLITSQDAVERAQQMKKDLLDKLEKLAEDLPPNTLDELIDELGGPENVAEMTGRKGRVVSNDDGSISYESRSELDVPVEILNITEKQRFMDGDKNIAIISEAASSGISLQADRRAKNQRRRVHMTLELPWSADRAIQQFGRTHRSNQVTAPEYVFLISELAGEQRFASIVAKRLESLGALTHGDRRATESRDLSRFNFDNKYGRNALEIVMKSIVNLDSPMVSPPPDYPGEFFKDVRQGLIGVGLINVEDRSGILTLDKDYNNIGKFLNRILGMEVHQQNALFQYFADTLTAVVQNAKKNGRYDMGILDLGSGDEKVRKSDVKKFLTPGYSTSGHVELYTISVERGMSWEEATKIWAELTGPDDGFYLSLQIRNNKKTAILVKEVNPKKKLFLVYRPNTGKQLKLEIYADLKKKYKKVVSDDALMHWLDQYNSSADTCTHAYWRGNCKKASLGLVCEIGLRCRTYYVLCGSVLSVWTKVEGVLASVSGTNVKMQIVRLRTEDGQRIVGLIIPANCVSPLVNLLSTSDQSQQLAVQQKQLWQQHHPQSITNLSNA
For the molecule B1, the binding result with FLAG-mTead4 (mouse) is reported as “binds weakly”.

B2: SBNO1-V5 (human Strawberry Notch 1, V5-tagged) (protein, UniProt A3KN83 1-1393)
chain: MVEPGQDLLLAALSESGISPNDLFDIDGGDAGLATPMPTPSVQQSVPLSALELGLETEAAVPVKQEPETVPTPALLNVRQQPPSTTTFVLNQINHLPPLGSTIVMTKTPPVTTNRQTITLTKFIQTTASTRPSVSAPTVRNAMTSAPSKDQVQLKDLLKNNSLNELMKLKPPANIAQPVATAATDVSNGTVKKESSNKEGARMWINDMKMRSFSPTMKVPVVKEDDEPEEEDEEEMGHAETYAEYMPIKLKIGLRHPDAVVETSSLSSVTPPDVWYKTSISEETIDNGWLSALQLEAITYAAQQHETFLPNGDRAGFLIGDGAGVGKGRTIAGIIYENYLLSRKRALWFSVSNDLKYDAERDLRDIGAKNILVHSLNKFKYGKISSKHNGSVKKGVIFATYSSLIGESQSGGKYKTRLKQLLHWCGDDFDGVIVFDECHKAKNLCPVGSSKPTKTGLAVLELQNKLPKARVVYASATGASEPRNMAYMNRLGIWGEGTPFREFSDFIQAVERRGVGAMEIVAMDMKLRGMYIARQLSFTGVTFKIEEVLLSQSYVKMYNKAVKLWVIARERFQQAADLIDAEQRMKKSMWGQFWSAHQRFFKYLCIASKVKRVVQLAREEIKNGKCVVIGLQSTGEARTLEALEEGGGELNDFVSTAKGVLQSLIEKHFPAPDRKKLYSLLGIDLTAPSNNSSPRDSPCKENKIKKRKGEEITREAKKARKVGGLTGSSSDDSGSESDASDNEESDYESSKNMSSGDDDDFNPFLDESNEDDENDPWLIRKDHKKNKEKKKKKSIDPDSIQSALLASGLGSKRPSFSSTPVISPAPNSTPANSNTNSNSSLITSQDAVERAQQMKKDLLDKLEKLAEDLPPNTLDELIDELGGPENVAEMTGRKGRVVSNDDGSISYESRSELDVPVEILNITEKQRFMDGDKNIAIISEAASSGISLQADRRAKNQRRRVHMTLELPWSADRAIQQFGRTHRSNQVTAPEYVFLISELAGEQRFASIVAKRLESLGALTHGDRRATESRDLSRFNFDNKYGRNALEIVMKSIVNLDSPMVSPPPDYPGEFFKDVRQGLIGVGLINVEDRSGILTLDKDYNNIGKFLNRILGMEVHQQNALFQYFADTLTAVVQNAKKNGRYDMGILDLGSGDEKVRKSDVKKFLTPGYSTSGHVELYTISVERGMSWEEATKIWAELTGPDDGFYLSLQIRNNKKTAILVKEVNPKKKLFLVYRPNTGKQLKLEIYADLKKKYKKVVSDDALMHWLDQYNSSADTCTHAYWRGNCKKASLGLVCEIGLRCRTYYVLCGSVLSVWTKVEGVLASVSGTNVKMQIVRLRTEDGQRIVGLIIPANCVSPLVNLLSTSDQSQQLAVQQKQLWQQHHPQSITNLSNA
For the molecule B2, in the assay with FLAG-mRbpj (mouse) [4], the binding entry was “binds”.
